Source: patent US20170226172A1
No constants are given. Whether binding was seen depends on the method and setting. Some results given as binding are weak or reduced against the parent protein; the word gives no strength.

The chains behind the UniProt entries cited, without tags or fusion partners. Where a name states a change or a piece, a line headed by the entry shows the natural chain unless it says otherwise.
UniProt P11362: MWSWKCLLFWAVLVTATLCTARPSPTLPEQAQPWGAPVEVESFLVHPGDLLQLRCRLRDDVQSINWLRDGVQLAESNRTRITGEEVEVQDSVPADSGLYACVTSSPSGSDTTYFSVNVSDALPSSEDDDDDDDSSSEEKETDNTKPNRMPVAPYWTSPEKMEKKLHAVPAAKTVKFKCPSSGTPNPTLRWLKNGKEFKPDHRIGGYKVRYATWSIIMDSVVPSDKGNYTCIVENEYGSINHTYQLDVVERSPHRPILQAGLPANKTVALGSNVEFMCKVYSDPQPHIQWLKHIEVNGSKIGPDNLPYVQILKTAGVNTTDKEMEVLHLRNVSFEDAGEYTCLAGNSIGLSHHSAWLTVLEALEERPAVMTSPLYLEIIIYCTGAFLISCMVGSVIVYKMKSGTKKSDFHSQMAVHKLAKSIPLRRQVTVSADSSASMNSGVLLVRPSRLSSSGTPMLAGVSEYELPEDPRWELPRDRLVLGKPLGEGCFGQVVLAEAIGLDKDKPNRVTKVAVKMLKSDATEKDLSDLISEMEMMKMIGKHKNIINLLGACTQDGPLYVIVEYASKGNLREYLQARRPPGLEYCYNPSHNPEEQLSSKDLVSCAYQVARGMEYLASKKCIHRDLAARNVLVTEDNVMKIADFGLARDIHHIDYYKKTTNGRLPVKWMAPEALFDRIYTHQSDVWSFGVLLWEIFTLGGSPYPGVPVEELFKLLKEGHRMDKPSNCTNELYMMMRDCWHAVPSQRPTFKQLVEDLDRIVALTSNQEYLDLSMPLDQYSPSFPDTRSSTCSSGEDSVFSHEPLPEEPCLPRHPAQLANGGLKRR
UniProt P22455: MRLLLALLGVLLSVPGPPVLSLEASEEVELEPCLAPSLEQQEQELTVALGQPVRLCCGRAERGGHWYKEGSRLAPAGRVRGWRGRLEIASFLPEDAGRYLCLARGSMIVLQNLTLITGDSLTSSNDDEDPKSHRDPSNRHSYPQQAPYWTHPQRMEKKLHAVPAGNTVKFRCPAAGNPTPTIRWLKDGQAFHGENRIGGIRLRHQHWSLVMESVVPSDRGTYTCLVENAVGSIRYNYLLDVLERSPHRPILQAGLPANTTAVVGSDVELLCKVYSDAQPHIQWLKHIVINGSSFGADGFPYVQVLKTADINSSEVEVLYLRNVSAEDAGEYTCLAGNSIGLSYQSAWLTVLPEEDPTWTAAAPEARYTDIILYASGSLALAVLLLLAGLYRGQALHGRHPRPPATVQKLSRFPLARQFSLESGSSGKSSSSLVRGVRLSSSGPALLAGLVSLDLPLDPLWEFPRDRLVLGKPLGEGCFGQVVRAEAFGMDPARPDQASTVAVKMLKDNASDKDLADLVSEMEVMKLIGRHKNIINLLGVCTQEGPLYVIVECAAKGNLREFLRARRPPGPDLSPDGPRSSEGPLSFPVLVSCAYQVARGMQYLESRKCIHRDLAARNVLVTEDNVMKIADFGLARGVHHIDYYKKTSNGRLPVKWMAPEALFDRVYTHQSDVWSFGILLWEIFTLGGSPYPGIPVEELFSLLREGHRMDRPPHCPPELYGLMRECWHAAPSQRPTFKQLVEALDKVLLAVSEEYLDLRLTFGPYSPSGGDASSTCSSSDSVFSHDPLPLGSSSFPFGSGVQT

Legend:
[1] = biological target: FGFR1c/alpha-klotho on BaF3 cells (Example 12) (Homo sapiens (Human)) (UniProt P11362); assay: competition with FGF23 on BaF3 cells (FIG. 17A)
[2] = biological target: FGFR4/alpha-klotho on BaF3 cells (Example 12) (Homo sapiens (Human)) (UniProt P22455); assay: competition with FGF23 on BaF3 cells (FIG. 17B)
[3] = biological target: FGFR4/alpha-klotho on BaF3 cells (Example 12) (Homo sapiens (Human)) (UniProt P22455); assay: competition with FGF23 on BaF3 cells expressing FGFR4/alpha-klotho
[4] = biological target: FGFR1c/alpha-klotho on BaF3 cells (Example 12) (Homo sapiens (Human)) (UniProt P11362); assay: competition with FGF23 on BaF3 cells expressing FGFR1c/alpha-klotho

Measured: binding

B1: Wild Type Human FGF23 c-tail 180-251 (72 amino acid peptide) (peptide)
peptide: SAEDDSERDPLNVLKPRARMTPAPASCSQELPSAEDNSPMASDPLGVVRGGRVNTHAGGTGPEGCRPFAKFI
binds: all assays above
